Measurements taken from publication doi:10.1101/2023.12.12.569033.
No constants are given. Whether binding was seen depends on the method and setting. In cells and extracts the contact can be indirect. These calls come from enrichment with a bait or labelling near it, and not all partners need be listed. Tags and fused reporters may be left off the sequences shown.

By UniProt entry, the sequences of proteins in these tests, tags left out.
UniProt Q969M3: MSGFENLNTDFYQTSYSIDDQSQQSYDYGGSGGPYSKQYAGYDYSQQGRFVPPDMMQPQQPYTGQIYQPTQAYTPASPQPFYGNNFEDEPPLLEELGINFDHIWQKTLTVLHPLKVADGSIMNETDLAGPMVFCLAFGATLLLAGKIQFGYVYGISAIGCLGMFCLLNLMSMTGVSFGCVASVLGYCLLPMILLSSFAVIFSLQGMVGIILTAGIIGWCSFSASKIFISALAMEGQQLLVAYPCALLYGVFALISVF

Biological target: T1, FLAG-GOT1A (Flag-GOLT1A), stably overexpressed in MCF10A cells (human) (UniProt Q6ZVE7)
T1 sequence: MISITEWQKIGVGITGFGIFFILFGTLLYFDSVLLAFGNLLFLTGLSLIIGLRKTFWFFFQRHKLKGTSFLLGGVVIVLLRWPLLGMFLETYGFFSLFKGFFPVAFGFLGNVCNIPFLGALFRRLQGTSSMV
Assay: affinity purification with mass spectrometry

binding: binds
Substance: YIPF5, endogenous in MCF10A cells (from UniProt Q969M3 1-257)
